From patent publication US20240327417A1, “HETEROCYCLIC COMPOUNDS” (BeiGene Switzerland GmbH, priority 2021, published 2024)
Structures were worked out from names or drawings and are uncertain.

Amino acid sequences for entries named in this document (tags omitted). Residues count along the entry.
UniProt Q13574, 1-929 isoform 4: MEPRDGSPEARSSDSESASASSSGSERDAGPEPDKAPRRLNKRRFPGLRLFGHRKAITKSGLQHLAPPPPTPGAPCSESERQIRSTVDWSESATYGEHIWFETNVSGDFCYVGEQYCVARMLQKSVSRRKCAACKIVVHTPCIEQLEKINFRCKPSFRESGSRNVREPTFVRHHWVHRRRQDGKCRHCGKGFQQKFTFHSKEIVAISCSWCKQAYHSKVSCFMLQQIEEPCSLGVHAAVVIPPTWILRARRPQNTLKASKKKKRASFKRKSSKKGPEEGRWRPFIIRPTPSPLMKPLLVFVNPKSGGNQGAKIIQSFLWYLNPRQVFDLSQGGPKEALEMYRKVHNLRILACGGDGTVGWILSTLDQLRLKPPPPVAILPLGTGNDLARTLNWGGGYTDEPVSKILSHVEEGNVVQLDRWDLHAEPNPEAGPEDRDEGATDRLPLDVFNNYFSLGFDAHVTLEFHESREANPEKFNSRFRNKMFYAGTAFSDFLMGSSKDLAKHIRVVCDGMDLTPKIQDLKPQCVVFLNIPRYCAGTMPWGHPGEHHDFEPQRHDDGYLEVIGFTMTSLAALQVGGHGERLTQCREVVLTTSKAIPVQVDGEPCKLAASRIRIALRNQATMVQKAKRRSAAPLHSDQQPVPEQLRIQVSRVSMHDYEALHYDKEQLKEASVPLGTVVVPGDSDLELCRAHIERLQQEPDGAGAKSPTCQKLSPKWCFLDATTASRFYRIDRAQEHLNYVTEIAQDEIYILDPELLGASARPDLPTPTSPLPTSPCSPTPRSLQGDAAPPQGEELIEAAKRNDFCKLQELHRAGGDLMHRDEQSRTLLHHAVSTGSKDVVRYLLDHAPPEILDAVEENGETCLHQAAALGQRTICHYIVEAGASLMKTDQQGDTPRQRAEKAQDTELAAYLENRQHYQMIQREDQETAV
UniProt P23743, whole entry: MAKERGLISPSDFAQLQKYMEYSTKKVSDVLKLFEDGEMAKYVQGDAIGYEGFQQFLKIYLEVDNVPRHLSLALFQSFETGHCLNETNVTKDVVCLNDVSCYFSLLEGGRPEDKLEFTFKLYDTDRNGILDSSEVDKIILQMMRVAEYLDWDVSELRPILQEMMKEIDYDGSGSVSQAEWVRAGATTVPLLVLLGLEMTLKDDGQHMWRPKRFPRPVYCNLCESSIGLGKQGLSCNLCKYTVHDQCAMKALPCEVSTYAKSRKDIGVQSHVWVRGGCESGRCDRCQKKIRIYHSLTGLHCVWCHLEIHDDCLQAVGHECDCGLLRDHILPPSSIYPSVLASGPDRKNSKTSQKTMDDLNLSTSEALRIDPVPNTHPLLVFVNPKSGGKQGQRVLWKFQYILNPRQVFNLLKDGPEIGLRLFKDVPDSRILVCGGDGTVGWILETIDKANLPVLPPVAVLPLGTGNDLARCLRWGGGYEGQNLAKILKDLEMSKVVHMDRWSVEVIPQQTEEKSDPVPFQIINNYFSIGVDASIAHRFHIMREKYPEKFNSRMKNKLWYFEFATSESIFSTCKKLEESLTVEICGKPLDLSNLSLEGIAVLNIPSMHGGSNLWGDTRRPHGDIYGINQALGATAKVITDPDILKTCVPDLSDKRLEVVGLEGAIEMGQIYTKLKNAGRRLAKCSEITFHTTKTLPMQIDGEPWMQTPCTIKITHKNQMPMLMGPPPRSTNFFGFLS

Assays:
[1] = target: Full length DGKζ (in-house protein M1-V929) (Homo sapiens, UniProt Q13574); assay: Biochemical DGK IC50 assay (ADP-Glo, lipid micelle substrate), DGKζ; conditions: read-out: IC50s for DGKζ, 0.5 nM enzyme, 140 μM ATP, 80 μM DAG, 1 hour preincubation, 1 hour reaction, room temperature
[2] = target: Full length DGKα (D21-10BG, SignalChem) (Homo sapiens, UniProt P23743); assay: Biochemical DGK IC50 assay (ADP-Glo, lipid micelle substrate), DGKα; conditions: read-out: IC50s for DGKα, 7.5 nM enzyme, 140 μM ATP, 80 μM DAG, 1 hour preincubation, 1 hour reaction, room temperature

SMILES	IC50 [1]	IC50 [2]
CC(c1ccc2ncc(C(F)F)nc2c1)N1C[C@H](C)N(c2cc(=O)n(C)n3cc(CC#N)nc23)C[C@H]1C (some centres unmarked)	19 nM	2380 nM
CC[C@H]1CN(C(C)c2ccc3nc(C)sc3c2)[C@H](C)CN1c1cc(=O)n(C)n2cc(CC#N)nc12 (some centres unmarked)	105 nM	407 nM
CC[C@H]1CN(C(C)c2ccc(C(F)F)cn2)[C@H](CC)CN1c1cc(=O)n(C)n2cc(CC#N)nc12 (single isomer, unassigned) [A78a]	130 nM	208 nM
CC[C@H]1CN(C(C)c2ccc(C(F)F)cn2)[C@H](CC)CN1c1cc(=O)n(C)n2cc(CC#N)nc12 (single isomer, unassigned) [A78b]	2910 nM	560 nM
CC[C@H]1CN(C(C)c2ccc(C(F)(F)F)cn2)[C@H](CC)CN1c1cc(=O)n(C)n2cc(CC#N)nc12 (single isomer, unassigned) [A79a]	112 nM	355 nM
CC[C@H]1CN(C(C)c2ccc(C(F)(F)F)cn2)[C@H](CC)CN1c1cc(=O)n(C)n2cc(CC#N)nc12 (single isomer, unassigned) [A79b]	1600 nM	521 nM
CC[C@H]1CN(C(C)c2ccc3nc(C)sc3n2)[C@H](C)CN1c1cc(=O)n(C)n2cc(CC#N)nc12 (single isomer, unassigned) [Compound A121b]	7160 nM	3170 nM
